Data from patent publication US20070232520A1.
Results are given in words; binding and its absence hold for the method and conditions named. Binding seen in cells or lysates may run through a third protein. Some results given as binding are weak or reduced against the parent protein; the word gives no strength. Values belong to the binder of their own block, whether it stands above or below them.

The chains behind the UniProt entries cited, without tags or fusion partners. Residues count along the entry.
UniProt P20333, residues 23-461: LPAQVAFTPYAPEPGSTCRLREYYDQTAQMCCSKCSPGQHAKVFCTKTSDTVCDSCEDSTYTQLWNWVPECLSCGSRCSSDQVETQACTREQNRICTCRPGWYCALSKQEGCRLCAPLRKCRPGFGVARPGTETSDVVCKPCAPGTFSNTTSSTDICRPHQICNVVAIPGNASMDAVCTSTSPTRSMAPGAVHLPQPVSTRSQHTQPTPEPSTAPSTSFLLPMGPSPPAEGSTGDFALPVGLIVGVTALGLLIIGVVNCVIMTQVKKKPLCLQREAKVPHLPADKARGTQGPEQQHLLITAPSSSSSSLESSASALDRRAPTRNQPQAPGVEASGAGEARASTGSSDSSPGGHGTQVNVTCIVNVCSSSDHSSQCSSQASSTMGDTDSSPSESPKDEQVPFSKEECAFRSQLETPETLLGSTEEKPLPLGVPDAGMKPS

Experiments:
[1] = molecular target: p75 (p75 TNF-R expressed in transfected HeLa cells) (UniProt P20333); test: coprecipitation from transfected HeLa cells
[2] = molecular target: p75 (p75 TNF-R expressed in transfected HeLa cells) (UniProt P20333); test: coprecipitation (coIP) with p75 from transfected HeLa cells

binding [1]: binds
binding [2]: binds
B1: E19 (p75IC-binding protein encoded by clone E19) (protein)
chain: EAAGRERERTLEYAEAHAFKSPSKENKKKDKDMLEDKFKSNNLEREQEQLDRIVKESGGKLTRRLVNSQCEFERRKPDGTTTLGLLHPVDPIVGEPGYCPVRLGMTTGRLQSGVNTLQGFKEDKRNKVTPVLYLELWAPTVLYAPHYDSTFANYQQGLI

binding [1]: binds
binding [2]: binds
B2: protein encoded by the 230 clone (protein)
chain: GPIREAGLAGWLALGCSGPPAEAAGGAGEPWPQHSGKGQLAGRNAWVKKRKAPRENSPGVRSCRASGRASRPHGDPFLLTLPRARHPVTLNVTIQVSLKQRNVRFNTPFRRGEN
